The list shows a part of the results.
Experiments:
Test in all cases: log2 fold change, soluble protein after heating vs DMSO (PISA); higher = thermal stabilisation; K562 cells, 10 uM, 30 min; active = over 0.2 and 3.5 SD of the protein, either way, in both replicates (recomputed)
[1] = compound: COC1=CC=C(C=C1)CN2C=CC3=C2C=C(C=C3)C(=O)NO
How it was run: (§1)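 K562 cells (2×10^6 cells/mL) were treated with 10 μM compound for 30 min, and aliquots were heated for 3 min over 48°C-58°C. Pooled aliquots were extracted in PBS with 0.5% NP-40 at 4°C, and the supernatant after 21,000xg for 90 min was measured by TMTpro 16plex LC-MS/MS with channel sums equalised. Reported thermal stability, relative to control samples and from duplicates, is a log2 fold change.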

By UniProt entry, the sequences of proteins in these tests, tags left out. Where a name states a change or a piece, a line headed by the entry shows the natural chain unless it says otherwise.
UniProt P0DMV8, whole entry, looked up: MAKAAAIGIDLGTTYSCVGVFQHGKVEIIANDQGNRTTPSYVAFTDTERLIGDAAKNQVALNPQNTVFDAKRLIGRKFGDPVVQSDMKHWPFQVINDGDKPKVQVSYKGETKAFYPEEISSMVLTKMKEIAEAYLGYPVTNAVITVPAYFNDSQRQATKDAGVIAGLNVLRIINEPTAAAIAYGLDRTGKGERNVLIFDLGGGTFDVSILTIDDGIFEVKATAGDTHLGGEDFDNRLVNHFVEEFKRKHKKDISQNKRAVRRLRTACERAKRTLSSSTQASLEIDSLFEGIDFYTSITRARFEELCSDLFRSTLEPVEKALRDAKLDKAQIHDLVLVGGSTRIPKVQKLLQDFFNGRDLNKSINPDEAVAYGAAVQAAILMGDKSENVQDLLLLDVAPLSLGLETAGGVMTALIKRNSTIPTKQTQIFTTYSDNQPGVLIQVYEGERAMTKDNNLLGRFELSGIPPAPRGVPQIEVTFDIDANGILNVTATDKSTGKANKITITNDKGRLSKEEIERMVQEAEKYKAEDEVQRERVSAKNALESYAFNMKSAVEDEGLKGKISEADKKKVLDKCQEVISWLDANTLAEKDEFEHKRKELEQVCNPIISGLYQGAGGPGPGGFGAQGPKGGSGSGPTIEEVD
UniProt Q13151: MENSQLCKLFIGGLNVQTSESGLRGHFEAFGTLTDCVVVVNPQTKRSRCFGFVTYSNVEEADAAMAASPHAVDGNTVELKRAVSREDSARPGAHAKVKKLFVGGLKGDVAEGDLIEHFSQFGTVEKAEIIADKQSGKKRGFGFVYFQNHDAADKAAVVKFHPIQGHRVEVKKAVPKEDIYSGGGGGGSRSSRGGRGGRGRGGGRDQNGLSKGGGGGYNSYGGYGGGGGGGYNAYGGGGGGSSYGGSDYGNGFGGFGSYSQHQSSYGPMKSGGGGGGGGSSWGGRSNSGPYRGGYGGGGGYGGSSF
UniProt O00291: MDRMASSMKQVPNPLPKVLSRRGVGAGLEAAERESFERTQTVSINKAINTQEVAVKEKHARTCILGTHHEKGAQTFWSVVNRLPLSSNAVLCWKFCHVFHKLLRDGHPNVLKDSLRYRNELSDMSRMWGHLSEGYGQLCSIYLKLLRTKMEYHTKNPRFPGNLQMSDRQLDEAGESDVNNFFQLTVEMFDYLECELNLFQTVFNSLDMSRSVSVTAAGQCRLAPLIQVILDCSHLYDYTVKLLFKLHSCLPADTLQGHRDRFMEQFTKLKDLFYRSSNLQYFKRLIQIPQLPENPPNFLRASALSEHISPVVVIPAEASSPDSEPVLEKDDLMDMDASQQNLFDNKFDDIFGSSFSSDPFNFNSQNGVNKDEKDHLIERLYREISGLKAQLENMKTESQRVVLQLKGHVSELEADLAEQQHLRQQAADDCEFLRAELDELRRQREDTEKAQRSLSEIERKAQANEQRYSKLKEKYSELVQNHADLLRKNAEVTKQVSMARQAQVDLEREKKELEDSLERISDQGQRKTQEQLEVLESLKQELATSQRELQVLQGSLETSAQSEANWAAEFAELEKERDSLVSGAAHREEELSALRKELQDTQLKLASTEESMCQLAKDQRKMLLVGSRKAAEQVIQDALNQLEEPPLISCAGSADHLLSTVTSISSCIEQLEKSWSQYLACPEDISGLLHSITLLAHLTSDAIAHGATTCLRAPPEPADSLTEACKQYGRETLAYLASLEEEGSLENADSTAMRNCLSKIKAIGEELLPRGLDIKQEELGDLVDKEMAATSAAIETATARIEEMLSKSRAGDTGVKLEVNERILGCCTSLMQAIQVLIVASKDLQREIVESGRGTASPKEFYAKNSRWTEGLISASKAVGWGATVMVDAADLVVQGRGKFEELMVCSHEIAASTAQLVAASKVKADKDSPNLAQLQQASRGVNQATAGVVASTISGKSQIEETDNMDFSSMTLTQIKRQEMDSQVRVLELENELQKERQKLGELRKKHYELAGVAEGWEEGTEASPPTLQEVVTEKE
UniProt O43464: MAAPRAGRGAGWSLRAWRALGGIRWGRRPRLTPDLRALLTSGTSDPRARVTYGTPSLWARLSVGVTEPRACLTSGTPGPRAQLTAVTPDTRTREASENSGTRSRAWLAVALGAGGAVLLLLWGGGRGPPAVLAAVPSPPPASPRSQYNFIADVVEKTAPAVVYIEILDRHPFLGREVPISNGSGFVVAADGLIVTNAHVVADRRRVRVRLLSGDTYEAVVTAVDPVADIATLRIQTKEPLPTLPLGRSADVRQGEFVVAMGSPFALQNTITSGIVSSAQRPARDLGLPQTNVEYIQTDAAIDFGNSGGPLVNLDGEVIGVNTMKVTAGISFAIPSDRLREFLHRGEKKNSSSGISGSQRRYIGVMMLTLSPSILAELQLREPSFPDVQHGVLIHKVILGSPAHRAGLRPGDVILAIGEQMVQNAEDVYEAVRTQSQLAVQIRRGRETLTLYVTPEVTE
UniProt P61604, whole entry, looked up: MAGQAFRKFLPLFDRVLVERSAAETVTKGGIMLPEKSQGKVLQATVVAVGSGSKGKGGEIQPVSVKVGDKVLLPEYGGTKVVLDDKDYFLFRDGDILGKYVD
UniProt Q53FT3: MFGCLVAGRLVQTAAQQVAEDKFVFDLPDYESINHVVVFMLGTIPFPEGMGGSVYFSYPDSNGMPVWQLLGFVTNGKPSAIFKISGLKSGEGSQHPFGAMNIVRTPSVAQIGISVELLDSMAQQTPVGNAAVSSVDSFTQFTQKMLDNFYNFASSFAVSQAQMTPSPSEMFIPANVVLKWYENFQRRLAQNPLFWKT
UniProt P00492: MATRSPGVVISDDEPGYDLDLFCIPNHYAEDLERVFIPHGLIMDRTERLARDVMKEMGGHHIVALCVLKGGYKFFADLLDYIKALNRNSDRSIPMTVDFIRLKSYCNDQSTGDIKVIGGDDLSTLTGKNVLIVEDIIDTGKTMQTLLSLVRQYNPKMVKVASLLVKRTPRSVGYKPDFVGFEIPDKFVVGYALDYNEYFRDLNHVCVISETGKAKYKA
UniProt P48723: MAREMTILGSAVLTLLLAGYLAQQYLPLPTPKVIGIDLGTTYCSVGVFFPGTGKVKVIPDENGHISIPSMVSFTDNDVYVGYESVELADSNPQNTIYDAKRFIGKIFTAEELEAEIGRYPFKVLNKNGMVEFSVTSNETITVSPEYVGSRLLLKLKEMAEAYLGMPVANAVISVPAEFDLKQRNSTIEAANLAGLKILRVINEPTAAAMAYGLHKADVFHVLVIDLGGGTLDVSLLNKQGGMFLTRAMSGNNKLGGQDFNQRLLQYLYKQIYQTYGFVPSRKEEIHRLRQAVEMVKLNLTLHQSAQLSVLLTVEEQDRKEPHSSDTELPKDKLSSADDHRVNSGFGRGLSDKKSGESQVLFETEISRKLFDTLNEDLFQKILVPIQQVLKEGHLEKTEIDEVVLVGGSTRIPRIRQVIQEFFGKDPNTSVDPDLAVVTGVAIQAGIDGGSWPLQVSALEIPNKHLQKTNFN
UniProt Q15651: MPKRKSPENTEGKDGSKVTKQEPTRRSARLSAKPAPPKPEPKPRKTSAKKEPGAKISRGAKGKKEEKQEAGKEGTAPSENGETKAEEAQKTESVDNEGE
UniProt Q92506: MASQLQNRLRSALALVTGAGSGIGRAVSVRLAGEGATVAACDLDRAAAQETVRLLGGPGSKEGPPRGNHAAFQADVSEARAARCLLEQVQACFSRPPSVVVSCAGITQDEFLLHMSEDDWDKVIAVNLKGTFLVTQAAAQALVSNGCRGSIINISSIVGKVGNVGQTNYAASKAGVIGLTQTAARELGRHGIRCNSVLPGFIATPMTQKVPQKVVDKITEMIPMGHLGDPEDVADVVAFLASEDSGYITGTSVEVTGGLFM
UniProt O43719: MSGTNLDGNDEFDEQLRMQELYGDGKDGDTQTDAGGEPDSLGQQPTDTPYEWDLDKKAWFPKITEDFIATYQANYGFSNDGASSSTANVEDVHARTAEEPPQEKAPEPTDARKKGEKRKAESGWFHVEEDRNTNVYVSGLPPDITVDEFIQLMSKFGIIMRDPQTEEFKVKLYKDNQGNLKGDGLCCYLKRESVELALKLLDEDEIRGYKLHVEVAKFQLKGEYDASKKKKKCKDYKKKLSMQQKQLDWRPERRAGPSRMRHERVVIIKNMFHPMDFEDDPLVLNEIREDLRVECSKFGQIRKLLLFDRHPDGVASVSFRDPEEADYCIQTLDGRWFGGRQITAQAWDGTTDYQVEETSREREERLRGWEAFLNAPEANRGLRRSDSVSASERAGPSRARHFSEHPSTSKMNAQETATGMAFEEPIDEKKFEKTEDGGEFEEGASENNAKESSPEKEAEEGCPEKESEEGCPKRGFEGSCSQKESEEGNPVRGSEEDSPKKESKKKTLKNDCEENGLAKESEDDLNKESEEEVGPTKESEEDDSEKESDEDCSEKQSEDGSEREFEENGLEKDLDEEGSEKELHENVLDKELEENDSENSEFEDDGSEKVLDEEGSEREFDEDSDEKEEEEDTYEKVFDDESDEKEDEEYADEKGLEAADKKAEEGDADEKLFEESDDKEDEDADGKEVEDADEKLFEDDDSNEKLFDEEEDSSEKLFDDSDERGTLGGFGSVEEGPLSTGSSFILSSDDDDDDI
UniProt P55795: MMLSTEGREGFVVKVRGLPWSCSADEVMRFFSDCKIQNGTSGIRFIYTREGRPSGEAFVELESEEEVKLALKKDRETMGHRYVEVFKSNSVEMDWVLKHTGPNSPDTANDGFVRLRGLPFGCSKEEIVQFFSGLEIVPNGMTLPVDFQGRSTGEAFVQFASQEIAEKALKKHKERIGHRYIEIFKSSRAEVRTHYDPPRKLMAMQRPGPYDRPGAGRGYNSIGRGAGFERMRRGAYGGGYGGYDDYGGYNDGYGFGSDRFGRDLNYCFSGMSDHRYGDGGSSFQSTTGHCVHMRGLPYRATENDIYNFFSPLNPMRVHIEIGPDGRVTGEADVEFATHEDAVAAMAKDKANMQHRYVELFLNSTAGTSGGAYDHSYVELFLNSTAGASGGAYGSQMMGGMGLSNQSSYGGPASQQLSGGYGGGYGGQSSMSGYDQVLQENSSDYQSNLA
UniProt Q5SSJ5: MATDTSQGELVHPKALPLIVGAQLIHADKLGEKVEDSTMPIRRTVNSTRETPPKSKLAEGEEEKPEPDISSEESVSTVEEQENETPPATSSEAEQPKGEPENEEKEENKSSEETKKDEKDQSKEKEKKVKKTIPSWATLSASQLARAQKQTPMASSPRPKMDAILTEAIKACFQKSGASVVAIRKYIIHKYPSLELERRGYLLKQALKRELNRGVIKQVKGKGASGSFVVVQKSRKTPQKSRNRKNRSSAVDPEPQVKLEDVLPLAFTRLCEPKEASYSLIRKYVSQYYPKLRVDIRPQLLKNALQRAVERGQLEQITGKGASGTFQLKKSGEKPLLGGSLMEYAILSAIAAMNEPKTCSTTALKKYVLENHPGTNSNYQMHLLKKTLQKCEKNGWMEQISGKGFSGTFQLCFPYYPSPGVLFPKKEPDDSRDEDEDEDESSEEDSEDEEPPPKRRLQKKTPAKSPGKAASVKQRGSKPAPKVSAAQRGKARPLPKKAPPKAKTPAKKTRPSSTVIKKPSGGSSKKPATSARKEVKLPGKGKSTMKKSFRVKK
UniProt Q8IWL3: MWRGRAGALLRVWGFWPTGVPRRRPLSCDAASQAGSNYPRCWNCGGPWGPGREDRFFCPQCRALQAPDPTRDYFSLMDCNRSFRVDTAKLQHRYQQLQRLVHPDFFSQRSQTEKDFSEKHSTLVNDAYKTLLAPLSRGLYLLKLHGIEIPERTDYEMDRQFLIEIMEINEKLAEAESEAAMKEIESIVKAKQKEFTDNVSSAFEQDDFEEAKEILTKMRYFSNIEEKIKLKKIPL
UniProt Q58FF7, whole entry, looked up: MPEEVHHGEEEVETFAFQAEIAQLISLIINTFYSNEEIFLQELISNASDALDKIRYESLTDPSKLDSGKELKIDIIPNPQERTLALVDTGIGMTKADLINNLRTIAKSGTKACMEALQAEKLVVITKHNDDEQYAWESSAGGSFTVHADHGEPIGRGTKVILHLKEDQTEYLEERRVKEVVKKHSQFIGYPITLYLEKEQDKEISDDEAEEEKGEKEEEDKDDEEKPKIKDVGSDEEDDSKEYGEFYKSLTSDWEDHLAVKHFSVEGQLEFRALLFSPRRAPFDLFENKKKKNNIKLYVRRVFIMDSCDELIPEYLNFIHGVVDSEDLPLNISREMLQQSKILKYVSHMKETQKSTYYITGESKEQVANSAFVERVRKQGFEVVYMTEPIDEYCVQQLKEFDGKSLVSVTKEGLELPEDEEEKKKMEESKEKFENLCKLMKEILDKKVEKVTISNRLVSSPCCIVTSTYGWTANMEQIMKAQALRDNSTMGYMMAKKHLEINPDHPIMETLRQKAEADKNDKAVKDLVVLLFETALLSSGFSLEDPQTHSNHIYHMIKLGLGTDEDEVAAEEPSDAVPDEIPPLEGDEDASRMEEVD

[2] = compound: CON(C)C(=O)N1N=C(c2cc(F)ccc2F)S[C@@]1(CCCN)c1ccccc1 [filanesib]
How it was run: as §1

[3] = compound: CO[C@H]1C[C@@H]2CC[C@@H](C)[C@@](O)(O2)C(=O)C(=O)N2CCCC[C@H]2C(=O)O[C@H]([C@H](C)C[C@@H]2CC[C@H](n3cnnn3)[C@H](OC)C2)CC(=O)[C@H](C)/C=C(\C)[C@@H](O)[C@@H](OC)C(=O)[C@H](C)C[C@H](C)/C=C/C=C/C=C/1C [zotarolimus]
How it was run: as §1

[4] = compound: COc1cc(C(=O)O)ccc1NC(=O)[C@@H]1N[C@@H](CC(C)(C)C)[C@](C#N)(c2ccc(Cl)cc2F)[C@H]1c1cccc(Cl)c1F [idasanutlin]
How it was run: as §1

[5] = compound: COc1cc(Nc2ncc3c(n2)-c2ccc(Cl)cc2C(c2c(F)cccc2OC)=NC3)ccc1C(=O)O [alisertib]
How it was run: as §1

[6] = compound: COc1cc2nc(-c3cc(F)ccc3O)nc(N[C@@H]3CNC[C@H]3C(C)(C)O)c2cc1OC
How it was run: as §1

[7] = compound: COc1cc2ncnc(Nc3ccc(F)c(Cl)c3)c2cc1OCCCN1CCOCC1 [gefitinib]
How it was run: as §1

[8] = compound: COc1cccc2cc(-c3nc([C@H]4CC[C@H](C(=O)O)CC4)n4ncnc(N)c34)[nH]c12
How it was run: as §1

[9] = compound: CS(=O)(=O)CCNCc1ccc(-c2ccc3ncnc(Nc4ccc(OCc5cccc(F)c5)c(Cl)c4)c3c2)o1 [lapatinib]
How it was run: as §1

[10] = compound: CS(=O)(=O)N1CCN(Cc2cc3nc(-c4cccc5[nH]ncc45)nc(N4CCOCC4)c3s2)CC1 [pictilisib]
How it was run: as §1

Measured: log2 fold change

HNRNPAB isoform 3 (UniProt Q99729)
inactive: [1] -0.088 | [2] 0.175 | [3] -0.045 | [4] 0.092 | [5] -0.048 | [6] 0.025 | [7] -0.012 | [8] -0.023 | [9] 0.009 | [10] -0.068

HSPA1A (UniProt P0DMV8)
inactive: [1] -0.017 | [2] 0.029 | [3] 0.05 | [4] 0.061 | [5] -0.104 | [6] -0.011 | [7] 0.03 | [8] -0.001 | [9] -0.021 | [10] -0.106

HSD17B10 (UniProt Q99714)
inactive: [1] 0.155 | [2] -0.153 | [3] 0.025 | [4] -0.045 | [5] -0.127 | [6] -0.049 | [7] 0.043 | [8] 0.004 | [9] 0.055 | [10] -0.015

HIRIP3 (UniProt Q9BW71)
inactive: [1] -0.044 | [2] -0.016 | [3] 0.031 | [4] -0.049 | [5] -0.031 | [6] -0.049 | [7] 0.003 | [8] 0.02 | [9] -0.006 | [10] -0.024

HNRNPA0 (UniProt Q13151)
inactive: [1] -0.045 | [2] 0.22 | [3] -0.056 | [4] 0.112 | [5] -0.031 | [6] 0.047 | [7] 0.068 | [8] -0.003 | [9] 0.075 | [10] -0.019

HIP1 (UniProt O00291)
inactive: [1] 0.022 | [2] -0.026 | [3] 0.017 | [4] -0.003 | [5] -0.269 | [6] 0.029 | [7] 0.016 | [8] 0.047 | [9] 0.059 | [10] 0

HTRA2 (UniProt O43464)
inactive: [1] 0.022 | [2] -0.018 | [3] -0.02 | [4] -0.014 | [5] -0.153 | [6] 0.029 | [7] 0.019 | [8] 0.027 | [9] 0.007 | [10] -0.083

IBA57 (UniProt Q5T440)
inactive: [1] -0.009 | [2] -0.039 | [3] -0.012 | [4] -0.001 | [5] -0.031 | [6] 0.024 | [7] 0.03 | [8] 0.076 | [9] -0.016 | [10] -0.007

HSPE1 (UniProt P61604)
inactive: [1] -0.087 | [2] -0.089 | [3] -0.03 | [4] -0.009 | [5] -0.031 | [6] 0.017 | [7] 0.038 | [8] 0.065 | [9] -0.044 | [10] 0.025

HMMR isoform 3 (UniProt O75330)
inactive: [1] 0.005 | [2] 0.046 | [3] 0.083 | [4] -0.031 | [5] -0.002 | [6] -0.004 | [7] 0.037 | [8] -0.096 | [9] 0.002 | [10] -0.011

HSP90AA4P (UniProt Q58FG1)
inactive: [1] -0.177 | [2] 0.051 | [3] -0.083 | [4] 0.032 | [5] 0.278 | [6] 0.249 | [7] -0.012 | [8] 0.117 | [9] -0.134 | [10] 0.211

HMCN1 (UniProt Q96RW7)
inactive: [1] -0.194 | [2] 0.121 | [3] 0.062 | [4] -0.069 | [5] -0.006 | [6] 0.025 | [7] -0.098 | [8] 0.379 | [9] 0.029 | [10] -0.221

HIKESHI (UniProt Q53FT3)
inactive: [1] -0.051 | [2] -0.063 | [3] 0.026 | [4] -0.05 | [5] -0.076 | [6] 0.067 | [7] 0.011 | [8] 0.009 | [9] -0.021 | [10] -0.004

HSP90AA1 isoform 2 (UniProt P07900)
inactive: [1] 0.001 | [2] -0.069 | [3] 0.049 | [4] -0.017 | [5] -0.049 | [6] -0.005 | [7] -0.032 | [8] -0.011 | [9] -0.002 | [10] -0.004

HM13 isoform 2 (UniProt Q8TCT9)
inactive: [1] -0.078 | [2] -0.083 | [3] -0.019 | [4] -0.06 | [5] -0.005 | [6] -0.041 | [7] 0.008 | [8] 0.086 | [9] 0.01 | [10] -0.005

HNRNPM (UniProt P52272)
inactive: [1] -0.101 | [2] 0.238 | [3] 0.06 | [4] 0.295 | [5] 0.056 | [6] -0.153 | [7] -0.031 | [8] -0.25 | [9] 0.075 | [10] -0.09

HMGN4 (UniProt O00479)
inactive: [1] -0.222 | [2] -0.313 | [3] 0.056 | [4] 0.074 | [5] -0.395 | [6] -0.139 | [7] -0.197 | [8] -0.415 | [9] 0.292 | [10] -0.57

HNRNPD (UniProt Q14103)
inactive: [1] -0.037 | [2] 0.266 | [3] -0.02 | [4] 0.07 | [5] -0.075 | [6] 0.001 | [7] -0.057 | [8] -0.041 | [9] 0.06 | [10] -0.021

HPRT1 (UniProt P00492)
inactive: [1] -0.175 | [2] -0.027 | [3] -0.005 | [4] -0.035 | [5] -0.169 | [6] -0.07 | [7] -0.019 | [8] 0.035 | [9] 0.054 | [10] 0

HSPA13 (UniProt P48723)
inactive: [1] -0.012 | [2] 0.023 | [3] 0.059 | [4] -0.056 | [5] 0.001 | [6] -0.001 | [7] 0.021 | [8] 0 | [9] 0.023 | [10] -0.064

HMGN3 (UniProt Q15651)
inactive: [1] 0.066 | [2] 0.08 | [3] -0.004 | [4] 0.11 | [5] -0.044 | [6] -0.115 | [7] -0.026 | [8] 0.009 | [9] -0.082 | [10] -0.132

HIP1R (UniProt O75146)
inactive: [1] -0.011 | [2] -0.039 | [3] -0.034 | [4] -0.046 | [5] 0.114 | [6] 0.027 | [7] -0.025 | [8] 0 | [9] -0.041 | [10] -0.011

HSD17B8 (UniProt Q92506)
inactive: [1] -0.077 | [2] -0.083 | [3] -0.099 | [4] -0.05 | [5] 0.17 | [6] 0.021 | [7] 0.016 | [8] 0.08 | [9] 0.026 | [10] -0.013

Fetched one by one from the entries so far, 2 records:
HIP1R (UniProt O75146)
inactive: [1] -0.011 | [2] -0.039 | [3] -0.034 | [4] -0.046 | [5] 0.114 | [6] 0.027 | [7] -0.025 | [8] 0 | [9] -0.041 | [10] -0.011

HPRT1 (UniProt P00492)
inactive: [1] -0.175 | [2] -0.027 | [3] -0.005 | [4] -0.035 | [5] -0.169 | [6] -0.07 | [7] -0.019 | [8] 0.035 | [9] 0.054 | [10] 0

Next part.

HSPD1 (UniProt P10809)
inactive: [1] -0.011 | [2] -0.056 | [3] -0.023 | [4] 0.007 | [5] -0.06 | [6] 0.012 | [7] 0.014 | [8] 0.032 | [9] -0.054 | [10] -0.033

HTATSF1 (UniProt O43719)
inactive: [1] 0.036 | [2] -0.024 | [3] 0.028 | [4] -0.017 | [5] 0.108 | [6] 0.068 | [7] 0.055 | [8] -0.008 | [9] -0.095 | [10] 0.082

HM13 (UniProt Q8TCT9)
inactive: [1] -0.082 | [2] -0.075 | [3] 0.076 | [4] -0.158 | [5] 0.019 | [6] 0.044 | [7] 0.123 | [8] 0.104 | [9] 0.069 | [10] 0.051

HNRNPH2 (UniProt P55795)
inactive: [1] 0.003 | [2] 0.033 | [3] 0.079 | [4] 0.001 | [5] 0.058 | [6] -0.231 | [7] 0.02 | [8] -0.079 | [9] 0.057 | [10] -0.021

HP1BP3 (UniProt Q5SSJ5)
inactive: [1] 0.041 | [2] 0.145 | [3] -0.003 | [4] 0.095 | [5] -0.069 | [6] -0.053 | [7] 0.154 | [8] -0.024 | [9] 0.044 | [10] 0.04

HSCB (UniProt Q8IWL3)
inactive: [1] -0.101 | [2] -0.111 | [3] 0.022 | [4] -0.042 | [5] 0.064 | [6] -0.031 | [7] 0 | [8] -0.064 | [9] 0.028 | [10] 0.078

HSP90AB3P (UniProt Q58FF7)
inactive: [1] 0.02 | [2] -0.024 | [3] 0.171 | [4] -0.23 | [5] -0.052 | [6] 0.035 | [7] -0.051 | [8] 0.035 | [9] -0.03 | [10] 0.052
